In all, about 1,900 compounds went through this assay and fewer than 10 were called active. The shares of active, inactive and inconclusive entries below differ from those in the screen.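 The calls were made as follows: active = compound lowering the normal-ribosome reporter at least twice as much as the humanized-ribosome reporter, growth loss under a set limit; inconclusive = no clear call, values can overlap the other calls; inactive = the rest.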
assay: growth of wild-type and h24-humanized E. coli strains – h24 mutant RFP vs wild-type GFP, cherry-pick, dose response (AID 977628); details: E. coli WT GFP strain growth, fluorescence, 24 h; at 50 µM (top of the series) unless noted

Row | SMILES | activity change, negative = inhibition
1 | COc1ccccc1N(C)S(=O)(=O)c1ccc(Cl)c(C(=O)NC2=NCCS2)c1 | inconclusive: -18.7
2 | CC1Cc2cc(-c3csc(NC(=O)Cc4ccccc4)n3)ccc2N1S(C)(=O)=O (stereo unspecified) | inactive: -16.6
3 | COC(=O)c1sc(C(C)(C)C)cc1CS(=O)(=O)c1ccc(Cl)cc1 | inactive: -3.78
4 | COC(=O)c1ccc(OS(=O)(=O)c2ccc(NC(C)=O)cc2)cc1 | inconclusive: -20.7
5 | COc1cc(OC)cc(C(=O)Nc2ccc(C(=O)Nc3ccccc3OC)cc2)c1 | inconclusive: -14.7
6 | COCCN(C(=O)c1ccccc1F)c1nnc(-c2ccc(OC)cc2)s1 | inconclusive: -5.59
7 | C[C@H](CO)N1C[C@H](C)[C@H](CN(C)C(=O)Nc2ccc3c(c2)OCO3)Oc2c(NC(=O)Nc3ccccc3)cccc2C1=O | inconclusive: -8.3
8 | CC1CCCC(NC(=O)COC(=O)Cc2c[nH]c3ccccc23)C1C (stereo unspecified) | inactive: -13.5
9 | CC(C)(C)CC(=O)NCCc1csc(-c2ccccc2)n1 | inconclusive: -20.6
10 | COc1cccc(S(=O)(=O)N2CCCCN3[C@H](CO)[C@@H](c4ccc(C#CC(C)C)cc4)[C@H]3C2)c1 | inconclusive: -97.3
11 | C[C@@H]1CCCCO[C@@H](CN(C)C)[C@H](C)CN([C@H](C)CO)C(=O)c2cc(NC(=O)Nc3cccc4ccccc34)ccc2O1 | inconclusive: -3.28
12 | CN(C)C(CNS(=O)(=O)c1cc([N+](=O)[O-])ccc1Cl)c1ccco1 (stereo unspecified) | inactive: -11.5
13 | COc1cc2c(cc1[N+](=O)[O-])-c1ccc([N+](=O)[O-])cc1C2 | inconclusive: -44.8
14 | C[C@H]1CN([C@@H](C)CO)C(=O)CCCn2nncc2CO[C@@H]1CN(C)Cc1ccccc1C(F)(F)F | inconclusive: -19.4
15 | O=[N+]([O-])c1ccc(NCCNCCOc2nonc2-c2ccccc2)c([N+](=O)[O-])c1 | inactive: -0.84
16 | O=C1c2cccc3cccc(c23)C(=O)N1CCCn1ccnc1 | inconclusive: -18.3
17 | Cc1ccc([N+](=O)[O-])c(OCCn2cnc3ccccc32)c1 | inactive: -6.57
18 | Cc1ccc(Cl)cc1N1CCN(S(C)(=O)=O)CC1 | inconclusive: -35.7
19 | N#CC1CN(Cc2ccccc2)CN(Cc2ccccc2)C1 | inconclusive: -13.4
20 | COc1ccccc1Cc1c(-c2ccc(F)cc2)nc2ccc(Br)cn12 | inactive: -11.5
21 | C[C@@H]1CN([C@@H](C)CO)C(=O)c2cc(NC(=O)Nc3cccc4ccccc34)ccc2O[C@@H](C)CCCCO[C@@H]1CN(C)C | inconclusive: -2.08

Row | SMILES | activity change, negative = inhibition
22 | CCOC(=O)c1cnc2ccc(OCC)cc2c1NCCCN1CCOCC1 | inconclusive: -3.83
23 | COc1ccc(Cn2c(-c3ccc(Cl)cc3)c[n+]3ccccc23)cc1 | inconclusive: -34.6
24 | CN(CC(=O)Nc1cccc(F)c1)C(=O)Cn1c(=O)oc2ccccc21 | inactive: -4.97
25 | CCN(C(=O)c1ccnc(C(C)(C)C)c1)c1ccccc1 | inconclusive: -13.5
26 | CCn1c(-c2cc(-c3ccc(OC(C)C)cc3)nc3ccccc23)n[nH]c1=S | inconclusive: -30.8
27 | Cc1ccc(-n2cc(CNCCN3CCOC3=O)c(-c3ccc(F)cc3)n2)cc1 | inconclusive: -2.21
28 | O=C(O)CCn1c(SCc2cccc3ccccc23)nc2ccccc21 | inconclusive: -25.7
29 | COc1ccc(Nc2nc(NCCO)nc(N3CCCC3)n2)cc1 | inconclusive: -4.4
30 | COc1ccc(NC(=O)Nc2cccc3c2O[C@H](CN(C)S(=O)(=O)c2ccc(Cl)cc2)[C@H](C)CN([C@H](C)CO)C3=O)cc1 | inconclusive: -10.1
31 | O=C(CSc1nnc(-c2ccccc2F)n1C1CC1)Nc1cccnc1Cl | inactive: -6.63
32 | C[C@@H]1CCCCO[C@H](CN(C)C(=O)CCCN(C)C)[C@@H](C)CN([C@H](C)CO)C(=O)c2cc(NC(=O)Nc3cccc4ccccc34)ccc2O1 | inactive: 8.15
33 | O=C(CSCc1cnn(-c2ccccc2)c1-n1cccc1)NCc1cccnc1 | inactive: -2.9
34 | O=C(Nc1ccncc1)c1ccc(S(=O)(=O)Nc2ccccc2)cc1 | inconclusive: -25.4
35 | Cc1cccc(-c2cc3nc4c(c(N5CCOCC5)n3n2)CCCC4)c1 | inconclusive: -24.1
36 | O=C(Nc1ccc(Cl)c(Cl)c1)N[C@@H]1CC[C@@H](CCn2cc(C3CCCCC3)nn2)O[C@H]1CO | inconclusive: -7.78
37 | O=C(Nc1ccc(Cl)c(Cl)c1)N[C@H]1CC[C@@H](CCn2cc(C3CCCCC3)nn2)O[C@@H]1CO | inconclusive: -97.6
38 | O=C(C[C@@H]1CC[C@@H]2[C@H](COC[C@H](O)CN2C(=O)Nc2ccc(Cl)cc2)O1)N1CCCCC1 | inconclusive: -36.6
39 | CC1CCCCN1C(=O)C1CCCN(S(=O)(=O)c2cccc3nsnc23)C1 (stereo unspecified) | inconclusive: -6.62
40 | CC(C)Nc1nnc(SCC(=O)Nc2sccc2C#N)s1 | inconclusive: -14.2
41 | COc1ccc(-c2csc(NC(=O)c3ccoc3C)n2)cc1 | inactive: -7.22
42 | Cc1noc(C)c1NC(=O)Nc1ccc2c(c1)C(=O)N([C@@H](C)CO)C[C@H](C)[C@H](CN(C)C(=O)Nc1ccc3c(c1)OCO3)OCCCC[C@H](C)O2 | inconclusive: -2.27

An excerpt from above in order of length of the SMILES, rising:
Row | SMILES | activity change, negative = inhibition
33 | O=C(CSCc1cnn(-c2ccccc2)c1-n1cccc1)NCc1cccnc1 | inactive: -2.9
39 | CC1CCCCN1C(=O)C1CCCN(S(=O)(=O)c2cccc3nsnc23)C1 (stereo unspecified) | inconclusive: -6.62
36 | O=C(Nc1ccc(Cl)c(Cl)c1)N[C@@H]1CC[C@@H](CCn2cc(C3CCCCC3)nn2)O[C@H]1CO | inconclusive: -7.78
38 | O=C(C[C@@H]1CC[C@@H]2[C@H](COC[C@H](O)CN2C(=O)Nc2ccc(Cl)cc2)O1)N1CCCCC1 | inconclusive: -36.6

Following part:

Row | SMILES | activity change, negative = inhibition
43 | C=C(C)Cn1c(=O)c2c(nc3n2CC(C)CN3Cc2ccccc2)n(C)c1=O (stereo unspecified) | inconclusive: -20.1
44 | COc1ccc(C(=O)COc2ccc(F)cc2)c(O)c1 | inactive: -8.93
45 | COc1ccc(CN(C)C(=O)c2cc(-c3ccc(OC)c(OC)c3)nc3ccccc23)c(OC)c1 | inactive: -3.5
46 | CCCCn1c(=O)[nH]c(=O)c2c1nc(-c1ccccc1F)n2Cc1ccccc1 | inconclusive: -18
47 | O=S(=O)(Nc1ccccc1N1CCCCC1)c1cccs1 | inactive: -8.44
48 | COC(=O)c1sccc1NC(=O)CNC(=O)c1ccccc1 | inactive: -13.7
49 | O=C1CCCc2c1nc(-c1ccc([N+](=O)[O-])cc1)n2O | inconclusive: -0.572
50 | C[C@@H]1CN([C@@H](C)CO)C(=O)c2cccc(NC(=O)c3nc4ccccc4s3)c2O[C@@H]1CN(C)CC1CC1 | inactive: -10.3
51 | C[C@@H]1CN([C@H](C)CO)C(=O)c2c(c3ccccc3n2C)-c2ccccc2CO[C@@H]1CN(C)C(=O)CCN(C)C | inactive: -3.84
52 | Cc1onc(-c2c(Cl)cccc2Cl)c1C(=O)Nc1ccc(Cl)cn1 | inactive: -2.96
53 | COc1ccc(S(=O)(=O)n2cccc2)cc1 | inconclusive: -2.43
54 | CCOc1ccc(OCc2ccc(C(=O)N3CCCC3)o2)cc1 | inactive: -11.4
55 | CC(=O)Nc1ccc(Nc2nc(C)c([N+](=O)[O-])c(N(C)c3ccccc3)n2)cc1 | inconclusive: -33.7
56 | COc1ccc2sc(N3C(=O)CC(Cc4cccc(C)c4)C3=O)nc2c1 (stereo unspecified) | inconclusive: -23.9
57 | CC(C)(C)CC(=O)Nc1ccccc1N1CCN(c2ccccc2)CC1 | inactive: -13.7
58 | C[C@@H]1CCCCO[C@@H](CN(C)C(=O)CCCN(C)C)[C@H](C)CN([C@@H](C)CO)C(=O)c2cc(NC(=O)Nc3cccc4ccccc34)ccc2O1 | inconclusive: 5.05
59 | COc1ccc(C2CC(c3cccs3)=Nc3ccccc3S2)cc1 (stereo unspecified) | inconclusive: -12.5
60 | C=CCn1c(SCC(=O)Nc2ccc3c(c2)OCCO3)nnc1-c1ccco1 | inactive: -14.2
61 | COc1ccc(-c2nnc(COc3ccc(Br)cc3C)o2)cc1 | inconclusive: -11.1
62 | Cc1ccc(CCN2C(=O)c3ccccc3C2C(=O)NCc2cccnc2)cc1 (stereo unspecified) | inconclusive: -0.276
63 | O=C(Nc1ccc(Cl)cn1)c1cc2c(s1)-c1ccccc1OC2 | inconclusive: -5.86

Shown as tab-separated lines: entries from further up.
Row	SMILES	activity change, negative = inhibition
38	O=C(C[C@@H]1CC[C@@H]2[C@H](COC[C@H](O)CN2C(=O)Nc2ccc(Cl)cc2)O1)N1CCCCC1	inconclusive: -36.6
51	C[C@@H]1CN([C@H](C)CO)C(=O)c2c(c3ccccc3n2C)-c2ccccc2CO[C@@H]1CN(C)C(=O)CCN(C)C	inactive: -3.84

(more compounds)

Row | SMILES | activity change, negative = inhibition
64 | C=CCn1c(SCc2n[nH]c(=S)n2-c2ccccc2)nnc1-c1ccccc1 | inconclusive: -16.9
65 | O=C(Nc1ccn(Cc2ccc(Cl)cc2)n1)c1ccccc1 | inactive: -9.67
66 | CCC1(CC)NC(=O)N(CC(=O)N2N=C(c3ccc(Cl)cc3)CC2c2ccco2)C1=O (stereo unspecified) | inconclusive: -4.38
67 | CN1CCN(C(=O)c2cc3nc(-c4ccco4)cc(C(F)(F)F)n3n2)CC1 | inactive: -4.42
68 | COc1ccc(C2CC(c3ccc(Br)cc3)=NN2C(=O)CN2CCCC2)cc1 (stereo unspecified) | inconclusive: 0.078
69 | CC1(C(=O)Nc2ccc3c(c2)OCCO3)CSCC(=O)N1CCOc1ccccc1 (stereo unspecified) | inconclusive: -15.1
70 | O=C1CSC(c2cccnc2)N1Cc1ccc(Cl)c(Cl)c1 (stereo unspecified) | inactive: -4.76
71 | C=CCN(CC=C)C(=O)c1ccc2nc(Cc3ccc(OC)c(OC)c3)oc2c1 | inconclusive: -16.1
72 | Cc1noc(C)c1NC(=O)Nc1ccc2c(c1)C(=O)N([C@@H](C)CO)C[C@@H](C)[C@H](CN(C)C(=O)Nc1ccc3c(c1)OCO3)OCCCC[C@H](C)O2 | inconclusive: 4.85
73 | CCSc1nc2ccccc2c(=O)n1CCc1ccc(OC)c(OC)c1 | inconclusive: -34.5
74 | COC(=O)CC1COc2ccccc2N1C(=O)c1ccc(Br)cc1 (stereo unspecified) | inactive: 2.88
75 | O=S1(=O)c2ccccc2C(O)(c2ccccc2)c2ccccc21 | inconclusive: -8.24
76 | COc1ccc(-c2ccc3ccccc3n2)cc1OC | inconclusive: -19.4
77 | CCC1CCCCN1C(=O)CSc1nnc(-c2cccc(Cl)c2)o1 (stereo unspecified) | inactive: -14.5
78 | CN(Cc1ccc(F)cc1)Cc1nc(CCc2ccccc2)no1 | inconclusive: -22.3
79 | O=S(=O)(NCc1cc(-c2ccccc2)no1)c1ccccc1Cl | inactive: 1.01
80 | Cc1ccc(C#CC[N+](C)(C)CC#Cc2ccccc2)cc1 | inconclusive: -94.2
81 | O=[N+]([O-])c1ccc2nc(-c3ccccc3[N+](=O)[O-])[nH]c2c1 | inactive: -12.3
